The structures appear in SMILES notation. About 15 (0.7%) of roughly 2,200 compounds were called active.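 The calls were made as follows: active = fitted half-maximal concentration for loss of luminescence signal no more than a set limit of log units above the top tested concentration; inconclusive = flat fit with 30 to 70% signal loss, or invalid fit; inactive = half-maximal concentration above that set limit.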 Some of the results follow. Some results are limits rather than exact numbers.

The assay is described as follows: inhibitors of ADP-Glo detection reagents, dose response, artefact control for GSK3beta inhibitor project, biochemical, luminescence, cell-free, homogeneous (AID 434947).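 Also: kinase-free counter screen of ADP-Glo detection reagents for GSK3beta hits.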 Particulars: 5 uM ADP. On the technique in general: ADP-Glo first removes unused ATP, then detects ADP through luciferase.
Turning to `Nc1nc(Nc2cccc(Cl)c2)nc(NCc2ccco2)c1[N+](=O)[O-]`, the EC50 (as a rule, the concentration giving half of the maximal effect) is inactive: > 30 µM. To `COc1ccc2c(c1)C(=O)Nc1cc(Cl)ccc1N2` belongs inactive: > 30 µM; to `CC1(C)CC(=O)C=C(Nc2ccc(F)cc2F)C1`, inactive: > 30 µM; to `COc1cc(C(=O)Nc2cccc(-c3nc4ncccc4o3)c2C)cc(OC)c1OC`, inactive: > 30 µM.

On to `Cc1ccccc1C(=O)Nc1ccc(O)c2c(=O)cc(-c3ccccc3Cl)oc12`, for which the EC50 was inactive: > 30 µM. The result for `c1ccc(-c2nc(-c3ccco3)n3ccccc23)cc1` reads inactive: > 30 µM. On to `O=c1cc(-c2ccccc2)oc2cc(O)cc(O)c12`, for which the EC50 is inactive: > 30 µM.

`COc1cc(/C=N/NC(=O)c2ccc(O)cc2)ccc1Oc1ccc([N+](=O)[O-])cn1`: the EC50 was inactive: > 30 µM. The result for `CCN(CC)Cc1c(C(=O)N/N=C/c2ccco2)nnn1-c1nonc1N` reads inactive: > 30 µM; that for `O=C(NCc1ccccn1)c1ccc(Cn2cc(Br)cn2)o1`, inactive: > 30 µM; that for `CCc1nn(CC(=O)NCCN2CCOCC2)c(=O)c2cc3c(OC)cccc3n12`, inactive: > 30 µM. The result for `Cc1ncc(/C=C2\C(=O)Nc3ccccc32)[nH]1` reads inactive: > 30 µM; that for `CCOC(=O)c1cnc2ccc(F)cc2c1Nc1ccc2c(c1)OCCO2`, inactive: > 30 µM; that for `COC(=O)[C@@H]1Cc2c([nH]c3ccccc23)C2CCC(=O)N21` (stereo partly specified), inactive: > 30 µM. For `CCOC(=O)C1(Cc2cccc(F)c2)CCN(Cc2cn(CC)nc2C)CC1`, the EC50 was inactive: > 30 µM. With `O=C(O)c1cccnc1-c1ncccc1C(=O)O`, the EC50 is inactive: > 30 µM. The result for `Nc1nc(=S)c2ncn(C3OC(CO)C(O)C3O)c2[nH]1` (stereo unspecified) reads inactive: > 30 µM; that for `Cc1nc(Nc2ccccc2)sc1C(=O)c1ccccc1`, inactive: > 30 µM; that for `N#Cc1c(N)nc2c3c(sc(=N)c2c1N)NC(=O)CC3c1ccccc1` (stereo unspecified), inactive: > 30 µM. The result for `CC(=O)N1CCc2c(sc(NC(=O)CCS(=O)(=O)c3ccccc3)c2C(N)=O)C1` reads inactive: > 30 µM; that for `COc1cc(/C=N\Nc2ccc([N+](=O)[O-])cc2)ccc1OCC(=O)Nc1ccc(C)c(C)c1`, inactive: > 30 µM; that for `CCCCC(=O)Nc1ncc(Br)s1`, inactive: > 30 µM.

`Cc1cc(NC(=O)CSc2nc(-c3cccnc3)ccc2C#N)no1`: the EC50 was inactive: > 30 µM. As to `O=Cc1cn(CCC(=O)O)nc1-c1cccc(Cl)c1`, the EC50 was inactive: > 30 µM. To `COc1ccc(OC)c(/C=N/NC(=O)CCc2c(C)n[nH]c2C)c1` belongs inactive: > 30 µM; to `O=C(NCCCN1CCCCC1)c1ccc2c(c1)NC(=O)c1ccccc1S2`, inactive: > 30 µM.

Source of the values: PubChem BioAssay AID434947 (Broad Institute, 2010).
